{"source": "PubChem BioAssay AID1259308 (NCATS, 2017)", "purpose": "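Genes whose loss raises luciferase production in HEK293 cells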 (primary screen)", "system": "human HEK293 embryonic kidney cells stably expressing firefly luciferase (HEK-CMV-Luc2-Hygro)", "reagents": "single siRNA against human genes, 0.8 pmol siRNA per well", "timing": "72 h", "measurement": "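Reporter luminescence and viable-cell signal on separate replicate plates, given as percent of non-targeting control and median/MAD z-scores, plus per-cell luciferase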", "reading the numbers": "total luciferase, z-score: higher = more reporter protein produced", "rule for the call": "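Active when the median/MAD z-score for overall luciferase is greater than 3; a gene was taken forward for validation with new siRNAs if at least two of its three siRNAs passed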", "meaning of the calls": "active = raised luciferase; inactive = no rise", "note": "In all, the deposit lists about 59,000 reagents; below is a part drawn at random. About 1,510 of all reagents (2.6%) count as active. 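Calls use total luciferase alone and ignore viability, so some active siRNAs may act by altering cell number.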 Reagents against one gene are numbered here. Not all columns of the deposit are shown."}
{"target gene": "DLAT (GeneID 1737)", "siRNA no.": 1, "total luciferase, z-score": -0.403, "Call": "inactive"}
{"target gene": "DLAT (GeneID 1737)", "siRNA no.": 2, "total luciferase, z-score": 0.612, "Call": "inactive"}
{"target gene": "DLAT (GeneID 1737)", "siRNA no.": 3, "total luciferase, z-score": 0.265, "Call": "inactive"}
{"target gene": "GCM2 (GeneID 9247)", "siRNA no.": 1, "total luciferase, z-score": 0.841, "Call": "inactive"}
{"target gene": "GCM2 (GeneID 9247)", "siRNA no.": 2, "total luciferase, z-score": 0.547, "Call": "inactive"}
{"target gene": "GCM2 (GeneID 9247)", "siRNA no.": 3, "total luciferase, z-score": -0.895, "Call": "inactive"}
{"target gene": "KAZALD1 (GeneID 81621)", "siRNA no.": 1, "total luciferase, z-score": -0.883, "Call": "inactive"}
{"target gene": "KAZALD1 (GeneID 81621)", "siRNA no.": 2, "total luciferase, z-score": 1.77, "Call": "inactive"}
{"target gene": "KAZALD1 (GeneID 81621)", "siRNA no.": 3, "total luciferase, z-score": -0.667, "Call": "inactive"}

Ordered by “total luciferase, z-score” (lowest first): 2 of the entries above
{"target gene": "GCM2 (GeneID 9247)", "siRNA no.": 2, "total luciferase, z-score": 0.547, "Call": "inactive"}
{"target gene": "GCM2 (GeneID 9247)", "siRNA no.": 1, "total luciferase, z-score": 0.841, "Call": "inactive"}

More reagents follow.
{"target gene": "COX6B1 (GeneID 1340)", "siRNA no.": 1, "total luciferase, z-score": -0.974, "Call": "inactive"}
{"target gene": "COX6B1 (GeneID 1340)", "siRNA no.": 2, "total luciferase, z-score": 0.336, "Call": "inactive"}
{"target gene": "COX6B1 (GeneID 1340)", "siRNA no.": 3, "total luciferase, z-score": 0.337, "Call": "inactive"}
{"target gene": "MEF2C (GeneID 4208)", "siRNA no.": 1, "total luciferase, z-score": -0.244, "Call": "inactive"}
{"target gene": "MEF2C (GeneID 4208)", "siRNA no.": 2, "total luciferase, z-score": -1.02, "Call": "inactive"}
{"target gene": "MEF2C (GeneID 4208)", "siRNA no.": 3, "total luciferase, z-score": -0.317, "Call": "inactive"}
{"target gene": "ZNF767P (GeneID 79970)", "siRNA no.": 1, "total luciferase, z-score": 0.493, "Call": "inactive"}
{"target gene": "ZNF767P (GeneID 79970)", "siRNA no.": 2, "total luciferase, z-score": 1.66, "Call": "inactive"}
{"target gene": "ZNF767P (GeneID 79970)", "siRNA no.": 3, "total luciferase, z-score": 0.604, "Call": "inactive"}
{"target gene": "UNC5CL (GeneID 222643)", "siRNA no.": 1, "total luciferase, z-score": 1.93, "Call": "inactive"}
{"target gene": "UNC5CL (GeneID 222643)", "siRNA no.": 2, "total luciferase, z-score": 0.693, "Call": "inactive"}
{"target gene": "UNC5CL (GeneID 222643)", "siRNA no.": 3, "total luciferase, z-score": -2.92, "Call": "inactive"}
